Assay results as given in article PMC10175675.

Sequences of proteins named here, by UniProt entry; tags and fusion partners are left off.
UniProt P68559: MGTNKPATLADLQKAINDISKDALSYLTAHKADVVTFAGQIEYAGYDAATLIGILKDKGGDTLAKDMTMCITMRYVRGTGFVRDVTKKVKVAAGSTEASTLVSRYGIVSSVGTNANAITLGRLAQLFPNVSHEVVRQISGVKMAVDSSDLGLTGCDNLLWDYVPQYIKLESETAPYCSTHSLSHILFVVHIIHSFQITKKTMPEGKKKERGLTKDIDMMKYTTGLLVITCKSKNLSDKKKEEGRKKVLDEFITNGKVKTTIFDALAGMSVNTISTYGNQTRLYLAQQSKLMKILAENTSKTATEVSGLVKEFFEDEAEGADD
UniProt A0A0P0INT0: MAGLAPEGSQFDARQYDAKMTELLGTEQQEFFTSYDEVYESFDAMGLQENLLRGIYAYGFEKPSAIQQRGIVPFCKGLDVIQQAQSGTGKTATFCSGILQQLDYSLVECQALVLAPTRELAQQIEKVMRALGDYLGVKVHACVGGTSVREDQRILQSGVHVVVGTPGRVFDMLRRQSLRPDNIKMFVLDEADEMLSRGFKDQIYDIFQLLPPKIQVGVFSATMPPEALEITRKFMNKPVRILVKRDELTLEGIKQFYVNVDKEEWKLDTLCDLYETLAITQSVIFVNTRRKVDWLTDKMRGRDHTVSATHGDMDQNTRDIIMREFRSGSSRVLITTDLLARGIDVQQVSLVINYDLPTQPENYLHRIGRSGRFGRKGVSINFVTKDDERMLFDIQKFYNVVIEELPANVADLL

Columns and labels:
[1] = target: cYFP-NbATG5 (Nicotiana benthamiana ATG5) (Nicotiana benthamiana); experiment: split reporter; BiFC screen of RSV proteins against N. benthamiana ATGs in N. benthamiana cells; confocal microscopy
[2] = target: NbATG5-GFP (Nicotiana benthamiana ATG5) (Nicotiana benthamiana); experiment: co-IP; Co-IP of NbeIF4A-myc and NbATG5-GFP with increasing amounts of p2, and of NbATG5 and p2 with NbeIF4A expressed; total proteins extracted at 60 hpi
[3] = target: cYFP-NbATG5 (Nicotiana benthamiana ATG5) (Nicotiana benthamiana); experiment: split reporter; BiFC of NbeIF4A and NbATG5 with RFP or p2-RFP co-expressed; laser confocal microscopy at 60 hpi
[4] = target: NbATG6 (Nicotiana benthamiana ATG6), BiFC fusion (Nicotiana benthamiana); experiment: split reporter; BiFC screen of RSV proteins against N. benthamiana ATGs in N. benthamiana cells; confocal microscopy
[5] = target: NbATG3 (Nicotiana benthamiana ATG3), BiFC fusion (Nicotiana benthamiana); experiment: as above
[6] = target: NbATG8 (Nicotiana benthamiana ATG8), BiFC fusion (Nicotiana benthamiana); experiment: as above
[7] = target: NbATG7 (Nicotiana benthamiana ATG7), BiFC fusion (Nicotiana benthamiana); experiment: as above
[8] = target: BK-NbATG5 (pGBK-NbATG5; Nicotiana benthamiana ATG5) (Nicotiana benthamiana); experiment: two-hybrid; yeast two hybrid; AD-p2 and BK-NbATG5; SD medium (-Ade/-His/-Leu/-Trp) with X-gal, serial 10-fold dilutions
[9] = target: NbATG5-GFP (Nicotiana benthamiana ATG5) (Nicotiana benthamiana); experiment: co-IP; proteins transiently expressed using agrobacterium in leaf tissues; total proteins immunoprecipitated at 60 hpi using anti-GFP beads; immunoblot with anti-GFP and anti-myc
[10] = target: nLUC-NbATG5 (Nicotiana benthamiana ATG5) (Nicotiana benthamiana); experiment: split reporter; firefly luciferase complementation imaging (LCI) in N. benthamiana leaves; detached at 72 hpi, sprayed with 1 mM luciferin; CCD imaging

nYFP-CP (rice stripe virus coat protein) (from UniProt P68559 1-322)
binding [1]: no binding

NbeIF4A-myc (Nicotiana benthamiana eIF4A) (from UniProt A0A0P0INT0 1-413)
binding [2]: binds

nYFP-NbeIF4A (Nicotiana benthamiana eIF4A) (from UniProt A0A0P0INT0 1-413)
binding [3]: binds

B1: nYFP-p2 (rice stripe virus p2 protein) (protein, UniProt Q89717 1-199)
chain: MALLLFNDHYYGFLHKYKRHTGSYDNLFNLRCSKEDHYLNSLDAIWLMGCCEEFTDPALRAHALAIATESNIGLVNNNAVISDERLKCWLCKKPSHQQTEHLKLILLPNLVNGFQFATESYHICLKDHSGDDPTQYLSEFSFPTGLRAYYKPHQKMEHKHIVVTNGIPISKNFNEIALPDPSPSDDYVLVGAHECPILM
binding [4]: no binding | binding [5]: no binding | binding [6]: no binding | binding [1]: binds | binding [7]: no binding

B2: AD-p2 (pGAD-p2; rice stripe virus p2 protein) (protein, UniProt Q89717 1-199)
chain: MALLLFNDHYYGFLHKYKRHTGSYDNLFNLRCSKEDHYLNSLDAIWLMGCCEEFTDPALRAHALAIATESNIGLVNNNAVISDERLKCWLCKKPSHQQTEHLKLILLPNLVNGFQFATESYHICLKDHSGDDPTQYLSEFSFPTGLRAYYKPHQKMEHKHIVVTNGIPISKNFNEIALPDPSPSDDYVLVGAHECPILM
binding [8]: binds

B3: p2-myc (rice stripe virus p2 protein) (protein, UniProt Q89717 1-199)
chain: MALLLFNDHYYGFLHKYKRHTGSYDNLFNLRCSKEDHYLNSLDAIWLMGCCEEFTDPALRAHALAIATESNIGLVNNNAVISDERLKCWLCKKPSHQQTEHLKLILLPNLVNGFQFATESYHICLKDHSGDDPTQYLSEFSFPTGLRAYYKPHQKMEHKHIVVTNGIPISKNFNEIALPDPSPSDDYVLVGAHECPILM
binding [9]: binds

B4: cLUC-p2 (rice stripe virus p2 protein) (protein, UniProt Q89717 1-199)
chain: MALLLFNDHYYGFLHKYKRHTGSYDNLFNLRCSKEDHYLNSLDAIWLMGCCEEFTDPALRAHALAIATESNIGLVNNNAVISDERLKCWLCKKPSHQQTEHLKLILLPNLVNGFQFATESYHICLKDHSGDDPTQYLSEFSFPTGLRAYYKPHQKMEHKHIVVTNGIPISKNFNEIALPDPSPSDDYVLVGAHECPILM
binding [10]: binds

B5: p2-RFP (rice stripe virus p2 protein fused to red fluorescence protein) (protein, UniProt Q89717 1-199)
chain: MALLLFNDHYYGFLHKYKRHTGSYDNLFNLRCSKEDHYLNSLDAIWLMGCCEEFTDPALRAHALAIATESNIGLVNNNAVISDERLKCWLCKKPSHQQTEHLKLILLPNLVNGFQFATESYHICLKDHSGDDPTQYLSEFSFPTGLRAYYKPHQKMEHKHIVVTNGIPISKNFNEIALPDPSPSDDYVLVGAHECPILM
binding [3]: binds

B6: RSV p2 protein (construct of the Co-IP of Figure 5E,F, tag not stated) (protein, UniProt Q89717 1-199)
chain: MALLLFNDHYYGFLHKYKRHTGSYDNLFNLRCSKEDHYLNSLDAIWLMGCCEEFTDPALRAHALAIATESNIGLVNNNAVISDERLKCWLCKKPSHQQTEHLKLILLPNLVNGFQFATESYHICLKDHSGDDPTQYLSEFSFPTGLRAYYKPHQKMEHKHIVVTNGIPISKNFNEIALPDPSPSDDYVLVGAHECPILM
binding [2]: binds

These are yes or no findings as the source states them, for the method shown. For some of these results: Binding calls can cover weak binding; strength is not graded here. Tags and fused reporters may be left off the sequences shown. For some of these results: In cells and extracts the contact can be indirect.
